Experimental findings from PMC7338349 are described below.

By UniProt entry, the sequences of proteins in these tests, tags left out.
UniProt Q86WV6: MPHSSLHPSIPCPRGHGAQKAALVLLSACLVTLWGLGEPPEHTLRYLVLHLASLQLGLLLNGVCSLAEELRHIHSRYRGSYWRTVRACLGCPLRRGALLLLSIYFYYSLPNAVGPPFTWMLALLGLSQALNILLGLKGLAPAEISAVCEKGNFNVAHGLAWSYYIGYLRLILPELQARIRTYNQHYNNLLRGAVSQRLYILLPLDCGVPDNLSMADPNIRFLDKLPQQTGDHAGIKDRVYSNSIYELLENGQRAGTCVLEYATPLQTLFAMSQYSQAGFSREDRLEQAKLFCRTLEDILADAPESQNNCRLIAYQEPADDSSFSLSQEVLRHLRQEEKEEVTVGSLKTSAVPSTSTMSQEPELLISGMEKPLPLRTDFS

Results are given in words; binding and its absence hold for the method and conditions named. In cells and extracts the contact can be indirect. Some results given as binding are weak or reduced against the parent protein; the word gives no strength. For part of these data: Tags and fused reporters may be left off the sequences shown.

The target in test [1] is Myc-STING, expressed in HEK293T cells (UniProt Q86WV6). Description: co-IP; HEK293T co-transfected with Flag-Gal-9 (or Flag-EV) and Myc-STING for 24 h; extracts precipitated with anti-Myc-beads, blot with anti-Flag.
Test [2] has as its target Flag-STING-FL (full length), expressed in HEK293T cells (UniProt Q86WV6). Description: co-IP; HEK293T co-transfected for 24 h, then MG132 (10 uM) for 6 h; extracts precipitated with anti-Flag-beads, blot with anti-HA.
Test [3] addresses endogenous STING of C666-1 cells (human (endogenous in C666-1)) (UniProt Q86WV6). Description: co-IP; extracts of wild type C666-1 cells; precipitated with anti-STING antibody, blot with anti-Gal-9; both endogenous.
Test [4] addresses Flag-Gal-9, stably expressed in TW03 cells (UniProt O00182). Nature of the test: co-IP; lysates of TW03 cells stably expressing Flag-EV or Flag-Gal-9; precipitated with anti-Flag-beads, blot with anti-STING.
The target of test [5] is Flag-STING-FL (full length), expressed in HEK293T cells (UniProt Q86WV6). Nature of the test: co-IP; HEK293T transfected with Flag-STING and HA-TRIM29, then increasing amounts of Myc-Gal-9 for 24 h; precipitated with anti-Flag-beads, blot with anti-HA.
Test [6] has as its target Flag-STING, expressed in C666-1 cells (UniProt Q86WV6). Description: co-IP; C666-1 cells with shRNA against Gal-9 or control vector for 24 h, then HA-TRIM29 and Flag-STING for 24 h; precipitated with anti-Flag-beads, blot with indicated antibodies.

In the case of “Flag-Gal-9 (galectin-9, full length), expressed in HEK293T cells (from UniProt O00182-1 1-355)”, the binding entry in test [1] is on record as “binds”. As for “HA-Gal-9, expressed in HEK293T cells (from UniProt O00182 1-355)”, the binding entry in test [2] is “binds”. As for “endogenous Gal-9 of C666-1 cells (from UniProt O00182 1-355)”, in test [3], the binding result was “binds”. Take “endogenous STING of TW03 cells (from UniProt Q86WV6 1-379)”: the binding entry in test [4] is “binds”.

B1: HA-TRIM29, expressed in HEK293T cells (enzyme, UniProt Q14134 1-588)
chain: MEAADASRSNGSSPEARDARSPSGPSGSLENGTKADGKDAKTTNGHGGEAAEGKSLGSALKPGEGRSALFAGNEWRRPIIQFVESGDDKNSNYFSMDSMEGKRSPYAGLQLGAAKKPPVTFAEKGELRKSIFSESRKPTVSIMEPGETRRNSYPRADTGLFSRSKSGSEEVLCDSCIGNKQKAVKSCLVCQASFCELHLKPHLEGAAFRDHQLLEPIRDFEARKCPVHGKTMELFCQTDQTCICYLCMFQEHKNHSTVTVEEAKAEKETELSLQKEQLQLKIIEIEDEAEKWQKEKDRIKSFTTNEKAILEQNFRDLVRDLEKQKEEVRAALEQREQDAVDQVKVIMDALDERAKVLHEDKQTREQLHSISDSVLFLQEFGALMSNYSLPPPLPTYHVLLEGEGLGQSLGNFKDDLLNVCMRHVEKMCKADLSRNFIERNHMENGGDHRYVNNYTNSFGGEWSAPDTMKRYSMYLTPKGGVRTSYQPSSPGRFTKETTQKNFNNLYGTKGNYTSRVWEYSSSIQNSDNDLPVVQGSSSFSLKGYPSLMRSQSPKAQPQTWKSGKQTMLSHYRPFYVNKGNGIGSNEAP
In the case of B1, the binding result in test [5] is recorded as “binds”.

B2: HA-TRIM29, expressed in C666-1 cells (enzyme, UniProt Q14134 1-588)
chain: MEAADASRSNGSSPEARDARSPSGPSGSLENGTKADGKDAKTTNGHGGEAAEGKSLGSALKPGEGRSALFAGNEWRRPIIQFVESGDDKNSNYFSMDSMEGKRSPYAGLQLGAAKKPPVTFAEKGELRKSIFSESRKPTVSIMEPGETRRNSYPRADTGLFSRSKSGSEEVLCDSCIGNKQKAVKSCLVCQASFCELHLKPHLEGAAFRDHQLLEPIRDFEARKCPVHGKTMELFCQTDQTCICYLCMFQEHKNHSTVTVEEAKAEKETELSLQKEQLQLKIIEIEDEAEKWQKEKDRIKSFTTNEKAILEQNFRDLVRDLEKQKEEVRAALEQREQDAVDQVKVIMDALDERAKVLHEDKQTREQLHSISDSVLFLQEFGALMSNYSLPPPLPTYHVLLEGEGLGQSLGNFKDDLLNVCMRHVEKMCKADLSRNFIERNHMENGGDHRYVNNYTNSFGGEWSAPDTMKRYSMYLTPKGGVRTSYQPSSPGRFTKETTQKNFNNLYGTKGNYTSRVWEYSSSIQNSDNDLPVVQGSSSFSLKGYPSLMRSQSPKAQPQTWKSGKQTMLSHYRPFYVNKGNGIGSNEAP
With B2, the binding entry in test [6] is on record as “binds”.
